Laboratory results reported in US20220041687A1 (ST ANNA KINDERKREBSFORSCHUNG, published 2022).

B1: Myc-S(18.4.2)-8cys-BB-3z (other)
CAR chain: MEQKLISEEDLGGGGSAAVKLTYQGEEKQVDISKIKYVDRAGQFIWFEYDEGGGALGTGWVSEKDAPKELLQMLEKQTTTPAPRPPTPAPTIASQPLSLRPEACRPAAGGAVHTRGLDFACDIYIWAPLAGTCGVLLLSLVITLYCKRGRKKLLYIFKQPFMRPVQTTQEEDGCSCRFPEEEEGGCELRVKFSRSADAPAYKQGQNQLYNELNLGRREEYDVLDKRRGRDPEMGGKPRRKNPQEGLYNELQKDKMAEAYSEIGMKGERRRGKGHDGLYQGLSTATKDTYDALHMQALPPR
notes: Expressed in primary human T cells; The CD8 alpha hinge keeps its cysteines (8cys)
B2: S(18.4.2)-8cys-BB-3z (other)
CAR chain: MAAVKLTYQGEEKQVDISKIKYVDRAGQFIWFEYDEGGGALGTGWVSEKDAPKELLQMLEKQTTTPAPRPPTPAPTIASQPLSLRPEACRPAAGGAVHTRGLDFACDIYIWAPLAGTCGVLLLSLVITLYCKRGRKKLLYIFKQPFMRPVQTTQEEDGCSCRFPEEEEGGCELRVKFSRSADAPAYKQGQNQLYNELNLGRREEYDVLDKRRGRDPEMGGKPRRKNPQEGLYNELQKDKMAEAYSEIGMKGERRRGKGHDGLYQGLSTATKDTYDALHMQALPPR
notes: as for B1
B3: S(18.4.2)-G4S-8cys-BB-3z (other)
CAR chain: MAAVKLTYQGEEKQVDISKIKYVDRAGQFIWFEYDEGGGALGTGWVSEKDAPKELLQMLEKQGGGGSGGGGSTTTPAPRPPTPAPTIASQPLSLRPEACRPAAGGAVHTRGLDFACDIYIWAPLAGTCGVLLLSLVITLYCKRGRKKLLYIFKQPFMRPVQTTQEEDGCSCRFPEEEEGGCELRVKFSRSADAPAYKQGQNQLYNELNLGRREEYDVLDKRRGRDPEMGGKPRRKNPQEGLYNELQKDKMAEAYSEIGMKGERRRGKGHDGLYQGLSTATKDTYDALHMQALPPR
notes: as for B1

Target: T1, hEGFR-Fc (chimeric EGFR protein comprising the extracellular domain of EGFR fused to the Fc domain of IgG1) (human, UniProt P00533 25-645)
T1 construct: extracellular domain; Bought (R&D), captured on a Protein A sensor chip; also called hEGFR-Fc (R&D); extracellular domain of EGFR fused to IgG-Fc; not shown: Fc domain of IgG1
Assay: Flow cytometry of primary human T cells carrying the CAR, stained with EGFR extracellular domain-IgG1 Fc fusion and an anti-human-IgG1 antibody; T cells without CAR as control

Binding result, binds:
B1
B2
B3
